Patent US20220274983A1, “JAK KINASE INHIBITOR AND USE THEREOF” (JIANGSU CAREPHAR PHARMACEUTICAL CO., LTD., priority 2019, published 2022)
For at least one compound, name, drawing or mass did not settle the structure.

Test system: rat CIA model
Assay: Hindfoot foot volume in rat CIA model
Assay type: in vivo, Lewis rats
Conditions: CIA rats, 2 mg/kg

Question: Which results are given for `CC[C@@H]1CN(C(=O)NCC(F)(F)F)C[C@@H]1c1cnc2cnc3[nH]ccc3n12` [Upadacitinib, upadacitinib, reference compound]?
Answer: foot volume, relative potency in words: followed by Upadacitinib 2 mg/kg; foot volume compared to the Vehicle group, in words (p<0.05-0.001): significantly lower on days 17-28
